Results published in the supplement of paper PMC8166895.
Structures can show the parent of a compound that is named as a salt. The list shows a part of the results. Most values lie at the level of the controls, where differences are scatter.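 Differential scanning fluorimetry gave melting temperatures in a one-replicate pilot screen of a library of approved drugs plus clinical or known-target compounds. Hits increasing melting point at least 2 °C were the strongest stabilizers, while negative shifts signify destabilization.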

The compounds below were run on SARS-CoV-2 main protease (Mpro, nsp5) (assay: thermal shift ΔTm of Mpro relative to plate average Tm; higher = stronger thermal stabilization of Mpro (binding)). Conditions: 10 µM; protein concentration 1 µM.

SMILES | thermal shift ΔTm of Mpro [°C]
CN1CCN(C(c2ccccc2)c2ccccc2)CC1 [Cyclizine hydrochloride] | 0.229
CN1CCN(C(c2ccccc2)c2ccccc2)CC1 [Cyclizine 2HCl] | -0.159
CC(C)OC(=O)C1=CN(C(=O)c2ccc(F)c(F)c2)CC(C)(C)c2c1[nH]c1ccccc21 | -0.218
COC(=O)[C@@H]1CC2=CC(=O)CC[C@]2(C)[C@@]23O[C@@H]2C[C@@]2(C)[C@@H](CC[C@@]24CCC(=O)O4)[C@H]13 [Eplerenone] | 0.0445
CC[C@H](CO)Nc1nc(NCc2ccccc2)c2ncn(C(C)C)c2n1 [Roscovitine (Seliciclib,CYC202)] | -0.0265
OCCN(CCO)c1nc(N2CCCCC2)c2nc(N(CCO)CCO)nc(N3CCCCC3)c2n1 [Dipyridamole] | -0.176
Cc1ccc(NC(=O)c2cccc(C(C)(C)C#N)c2)cc1Nc1ccc2ncn(C)c(=O)c2c1 | -0.147
CC[C@@H](C)Nc1cc(C(=O)N[C@H]2C[C@H]3CC[C@@H](C2)N3c2ccc(C(=O)C3CC3)cn2)c(C)cc1C(N)=O | 0.0916
O=c1[nH]c2ccccc2n1CCCN1CCC(n2c(=O)[nH]c3cc(Cl)ccc32)CC1 [Domperidone] | -0.0983
O=C(O)c1ccccc1C(=O)Nc1ccc(S(=O)(=O)Nc2nccs2)cc1 [Phthalylsulfathiazole] | 0.214
CN(c1nccc(=O)[nH]1)C1CCN(c2nc3ccccc3n2Cc2ccc(F)cc2)CC1 [Mizolastine] | -0.0669
COCCCN1CCC(NC(=O)c2cc(Cl)c(N)c3c2OCC3)CC1 [Prucalopride] | -0.143
COCCCN1CCC(NC(=O)c2cc(Cl)c(N)c3c2OCC3)CC1 [Prucalopride Succinat] | -0.0384
C=C1C(=O)[C@@]23[C@H](O)C[C@@H]4C(C)(C)C(=O)CC[C@@]4(C)[C@@H]2CC[C@@H]1[C@H]3O [Glaucocalyxin A] | -0.00838
Cn1c(-c2ccccc2C(F)(F)F)nnc1C12CCC(c3noc(C4CC(F)(F)C4)n3)(CC1)CC2 | -0.048
COC(=O)C1=C(C#N)NC(C)=C(C(=O)OC(C)C)C1c1cccc([N+](=O)[O-])c1 (stereo not drawn) [Nilvadipine] | -0.197
C=CC(=O)N1C/C(=C\c2ccc([N+](=O)[O-])cc2)C(=O)/C(=C/c2ccc([N+](=O)[O-])cc2)C1 | 0.794
CNc1nc(Nc2cn(C(C)(C)C#N)nc2C)ncc1C(F)(F)F | -0.194
CCN(CC)c1nc2c(S(=O)(=O)c3ccc(Cl)cc3)nnn2c2cc(OC)c(OC)cc12 [Targocil] | 0.0244
C[C@H](CCC(=O)O)[C@H]1CC[C@H]2[C@@H]3[C@@H](O)C[C@@H]4C[C@H](O)CC[C@]4(C)[C@H]3CC[C@]12C [Ursodiol] | 0.0475
O=C(Nc1ccncc1)c1cc([N+](=O)[O-])ccc1Cl | -0.17
CCCCCCNC(=O)Nc1ccc(S(=O)(=O)Nc2ccc(CCNC[C@H](O)COc3ccc(O)cc3)cc2)cc1 | 0.0889
O=C(CCCN1CCN(c2ccccn2)CC1)c1ccc(F)cc1 [Azaperone] | -0.182
CNc1nc(-c2cccc(NC(=O)c3ccc(C(=O)OC)cc3)c2)c2cc(OC)c(OC)cc2n1 [Lotamilast] | 0.055

Rewritten in CSV form: part of the list above.
SMILES,thermal shift ΔTm of Mpro [°C]
"CC[C@H](CO)Nc1nc(NCc2ccccc2)c2ncn(C(C)C)c2n1 [Roscovitine (Seliciclib,CYC202)]",-0.0265
COC(=O)C1=C(C#N)NC(C)=C(C(=O)OC(C)C)C1c1cccc([N+](=O)[O-])c1 (stereo not drawn) [Nilvadipine],-0.197

(list continues)

SMILES | thermal shift ΔTm of Mpro [°C]
COc1cc([C@@H]2OC[C@@H]3[C@H]2CO[C@H]3c2cc(OC)c(O[C@@H]3O[C@H](CO)[C@@H](O)[C@H](O)[C@H]3O)c(OC)c2)cc(OC)c1O [(-)-Syringaresinol 4-O-β-D-glucopyranosi] | -0.0908
Nc1c2ccccc2nc2ccccc12 [Aminacrine] | -0.0463
Cc1ccc(=O)n(-c2ccccc2)c1 [Pirfenidone] | 0.0832
N#Cc1cc2cc(CN3CCC(Nc4ncnc5sc(CC(F)(F)F)cc45)CC3)ccc2[nH]1 | -0.0714
NC(=O)c1ccc(OCCCN2CC3CCCC3C2)cc1 (stereo not drawn) | 0.0885
Cc1cc(CN2CCN(c3c(Br)cnc4nc(-c5ccc(N6CCN(C)CC6)cc5)[nH]c34)CC2)no1 | 0.271
O=C(Oc1cc(S(=O)(=O)c2ccccc2)ccc1[N+](=O)[O-])c1ccc(Cl)cc1 | -1.05
CN(C)C(=O)[C@H](O)[C@H](Cc1ccccc1)NC(=O)c1cc2cc(Cl)ccc2[nH]1 | -0.0834
COc1ccc(C2CC(=O)c3c(O)cc(OC4OC(COC5OC(C)C(O)C(O)C5O)C(O)C(O)C4O)cc3O2)cc1OC (stereo not drawn) [Methyl-Hesperidin] | -0.137
N[C@@H](Cc1cc(I)c(Oc2ccc(O)c(I)c2)c(I)c1)C(=O)O [Liothyronine Sodium] | 0.0476
CC(C)(C)c1cc(C(C)(C)C)c2c(c1)C(O)(C(F)(F)F)C(=O)O2 (racemic) | 0.213
CNC(=O)c1cc(C#N)cc(C)c1NC(=O)c1cc(Br)nn1-c1ncccc1Cl [Cyantraniliprole] | 0.149
Cc1cnc(Nc2ccc(OCCN3CCCC3)cc2)nc1Nc1cccc(S(=O)(=O)NC(C)(C)C)c1 | -0.203
C=CCN(C)CCCCCCOc1ccc(C(=O)c2ccc(Br)cc2)c(F)c1 [Ro 48-8071 fumarate] | -0.0284
CC1=C2C[C@H]3[C@@H](CC(=O)[C@H]4C[C@@H](O)CC[C@@]43C)[C@@H]2CC[C@]12O[C@@H]1C[C@H](C)CN[C@H]1[C@H]2C [Peimisine] | -0.0353
CCCNC(=O)NS(=O)(=O)c1ccc(Cl)cc1 [Chlorpropamide] | -0.0864
COc1ccc(Cl)c(Nc2nc3ccccc3nc2NS(=O)(=O)c2cccc(NC(=O)C(C)(C)N)c2)c1 [Pilaralisib (XL147)] | 1.02
CC(=O)O[C@]1(C(C)=O)CC[C@H]2[C@@H]3C=C(Cl)C4=CC(=O)CC[C@]4(C)[C@H]3CC[C@@]21C [Chlormadinone acetate] | 0.105
C=CCc1ccc2c(c1O)C(=O)c1ccccc1C2=O | 0.127
COc1ccc(-c2nc(N3CCOCC3)c3sc(CN(C)c4ncc(C(=O)NO)cn4)cc3n2)cn1 | -0.295
COc1cc(-c2ncn(/C=C\C(=O)OC(C)C)n2)cc(C(F)(F)F)c1 | 0.112
CCN(CC)c1ccc(/C=N/NC(=O)c2ccc(O)cc2)cc1 | -0.0215
Nc1ccccc1NC(=O)c1cnccn1 | -0.103
CO[C@H]1/C=C/O[C@@]2(C)Oc3c(C)c(O)c4c(O)c(c5c(nc6cc(C)ccn65)c4c3C2=O)NC(=O)/C(C)=C\C=C\[C@H](C)[C@H](O)[C@@H](C)[C@@H](O)[C@@H](C)[C@H](OC(C)=O)[C@@H]1C [Rifaximin] | -0.115
